Hit rate of the full screen: of about 1,300 compounds, about 65 (5%) were called active.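 Rule for the calls: active = growth inhibition reaching a set limit at one or more tested doses; inactive = the rest.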 This is one part of the list. Entries with a potency or affinity are not part of this list.
Test: wild-type E. coli BW25113 antibacterial activity – OD615, dose response (AID 638)
Settings: at 100 µM (top of the series) unless noted
How it was run: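 assay system = wild-type Escherichia coli strain BW25113 growth | medium = Kanamycin-supplemented LB broth | measured by = optical density (absorbance) at 615 nm | timing = bacterial exposure to compound 20 h at 37 °C | doses = compound concentration series | measure = IC50 from 4-parameter logistic, bounds fixed 0–100% | controls = chloramphenicol 30 µM control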

Growth inhibition, inactive:
O=S(=O)(Nc1nc2ccccc2nc1NCc1ccco1)c1cccs1 3.56%
O=C(Nc1nc(SCc2ccc(F)cc2)ns1)c1ccco1 8.06%
Clc1ccc(C(c2nnnn2C2CCCCC2)N(Cc2cccnc2)Cc2ccco2)cc1 (configuration not stated) -19.4%
CCn1c(Cn2nnc(-c3ccccc3)n2)nnc1SCc1ccc(Cl)c(Cl)c1 -0.33%
COc1cc(-c2nc(Cc3ccccc3Cl)no2)cc(OC)c1OC 8.5%
CCOC(=O)N1CCN(c2nc3ccccc3nc2C(C#N)S(=O)(=O)c2ccc(C)cc2)CC1 (configuration not stated) 2.6%
CCOC(=O)c1cccc(NC(=O)c2cc3sccc3n2C)c1 -7.71%
COc1ccc(C2c3sc(=O)[nH]c3SC3C4CCC(C4)C23)cc1 (configuration not stated) 0.8%
CC1CCCCN1c1nc(-c2ccncc2)nc2ccccc12 (configuration not stated) 10.6%
Cc1ccc(C(C(=O)NC2CCCC2)N(Cc2cccs2)C(=O)CNC(=O)c2cccs2)o1 (configuration not stated) 15.7%
COc1ccc2[nH]c3c(=O)n(CCCCC(=O)NCCN4CCCC4)c(=S)[nH]c3c2c1 3.52%
COC(=O)c1cn(NC(=O)c2cnccn2)c(=O)c2ccccc12 3.91%
Cc1cccc(N2CCN(C(=O)c3cc4n(n3)C(C(F)(F)F)CC(c3ccco3)N4)CC2)c1C (configuration not stated) 2.46%
CCCCN1C(=O)C2ON(c3ccccc3C)C(c3ccco3)C2C1=O (configuration not stated) 14.5%
O=C(Nc1ccc2nc(-c3cccs3)[nH]c2c1)c1ccco1 15%
COC(=O)c1c(NC(=O)Cc2cccs2)sc2c1CCCC2 2.67%
COc1cccc(N2CCN(CC(=O)Nc3nc4c(s3)CC(C)CC4)CC2)c1 (configuration not stated) -0.05%
C=C(C)COc1ccc(-c2n[nH]c(C)c2-c2ccccc2OC)c(O)c1 8.4%
COc1ccc(-c2cc3nc4c(c(N5CCC6(CC5)OCCO6)n3n2)CCCC4)cc1 0.64%
Cc1noc(NS(=O)(=O)c2ccc(NC(=O)Nc3ccc(Cl)c(Cl)c3)cc2)c1C 14.3%
CCOC(=O)c1c(C)n(C)c2ccc(OCC(O)Cn3nc(C)c(Br)c3C)cc12 (configuration not stated) -16.9%
CCCCCc1cc(O)c2c(C)cc(=O)oc2c1 7.24%
N#C/C(=C\c1cccs1)Sc1nc2ccccc2s1 -8.78%
O=c1n(Cc2ccc(Cl)cc2)c2sc3c(c2c2ncnn12)CCCC3 -18.4%
Cc1cc(NC(=O)c2noc3c2CCCC3)nn1Cc1ccc(Cl)cc1 -1.13%
CCc1cc(C(=O)Cc2ccc(F)cc2)c(O)cc1O 12.6% [at 50 µM]
COc1ccccc1-c1nnc2sc(COc3ccc(Cl)cc3)nn12 1.04%
CC(C)(C)c1ccc(C(=O)CCCSC2=C(C#N)C(c3ccco3)C3=C(CCCC3=O)N2)cc1 (configuration not stated) -21.6%
Cc1cccc(C)c1NC(=O)C(c1cccs1)N(Cc1ccco1)C(=O)Cn1nnc2ccccc21 (configuration not stated) -8.04%
Clc1ccc2nc(CN3CCCc4ccccc43)cn2c1 3.24%
CC(C)c1nnc(NC(=O)c2c(O)c3cccc4c3n(c2=O)CC4)s1 -12.4%
CCOC(=O)N1CCN(CC(=O)Nc2c(C(=O)OC)[nH]c3ccc(Cl)cc23)CC1 -2.2%
Cc1cc(Cl)ccc1OC(C)C(=O)Nc1ccccc1N1CCOCC1 (configuration not stated) 0.02%
C=CCc1cc(C)ccc1OCC(O)CN1CCN(c2ccccc2)CC1 (configuration not stated) 14%
Cc1[nH]c2ccccc2c1NC(=O)CN1CCN(c2cccc(C(F)(F)F)c2)CC1 13.9% [at 50 µM]
COc1ccccc1N1CCN(Cc2nc(N)nc(Nc3ccc(C)c(Cl)c3)n2)CC1 8.69%
COc1ccc(S(=O)(=O)C(C#N)c2nc3ccccc3nc2N2CCCC(C)C2)cc1 (configuration not stated) 14.1%
CC(C)(C)c1cc(C(F)(F)F)nc(SCCCNC(=O)c2ccco2)n1 16.2%
Cc1ccc2oc(=O)n(Cc3ccccc3OC(C)C)c2c1 2.91%
CCCCOc1ccc(S(=O)(=O)n2c(C)nc3ccccc32)cc1 5.27%
CC(C)C(c1nnnn1C1CCCC1)N1CCCc2ccccc21 (configuration not stated) 1.45%
C=C(C)C1CCC(C)=C1COC(=O)Nc1ccccc1 (configuration not stated) 2.23%
COc1ccc2c(-c3ccccc3)cc(N3CCOCC3)nc2c1 10.2%
Nc1nncn1C(=O)CCCN1C(=O)c2ccccc2C1=O 7.03%
CC(C)c1nc(N2CCOCC2)c(C#N)c2c1CCCC2 9.7%
Cc1ccc(-n2c(=O)[nH]cc(C(=O)Nc3ccc4c(c3)OCCO4)c2=O)cc1C -5.27%
O=C1CCCc2nc3nc4ccccc4n3cc21 14.4% [at 50 µM]
Cc1ccnc(N2CCC(C(=O)Nc3cccc(C(F)(F)F)c3)CC2)n1 1.68%
CC1CCN(c2oc(-c3ccccc3F)nc2C#N)CC1 -1.06%
CCOC(=O)c1c(NC(=O)C(F)(OC)C(F)(F)F)sc(C(=O)N2CCCCC2)c1C (configuration not stated) 8.1%
Cn1c(Oc2ccccc2NCc2cc(Br)ccc2O)cc(=O)n(C)c1=O 5%
O=C(Nc1cccc(-c2nnc(-c3ccccc3)o2)c1)c1ccc(Br)o1 -10.1%
CCOC(=O)c1ccc(NS(=O)(=O)c2ccc(SC)cc2)cc1 1.41%
CCn1c(C(=O)N2CCC(C(=O)NCCCSC3CCCCC3)CC2)cc2sccc21 -7.08%
COC(=O)c1sccc1NC(=O)c1csc(C)c1 0.89%
Cc1ccc(Nc2nc(N)nc(CN3CCN(c4ccccc4)CC3)n2)cc1Cl 2.14%
COc1ccc(-c2nnc(NC(=O)c3ccc(S(=O)(=O)N4COCC4(C)C)cc3)o2)cc1 -13.8%
O=C(CSc1ncn(-c2ccccc2)n1)Nc1nc2c(s1)CCCC2 4%
Cc1ccc2c(c1)NC(=O)C(CC(=O)NCCCN1CCN(c3cc(Cl)ccc3C)CC1)O2 (configuration not stated) 3.24%
CC1CCN(S(=O)(=O)c2cccc(C(=O)NCc3cccs3)c2)CC1 -0.27%
COc1cc2ccccc2cc1C(=O)Nc1ccc(S(=O)(=O)Nc2cc(C)on2)cc1 -7.9%
O=S(=O)(N1CCCCC1)n1c(Cc2ccccc2)nc2ccccc21 11.7%
OCCn1c(-c2ccc3c(c2)OCO3)csc1=Nc1ccccc1 6.06%
C=CCn1c(SCC(=O)Nc2nc3ccccc3s2)nnc1-c1ccccc1O 10.5%
CCc1cc(C(=O)COc2ccccc2F)c(O)cc1O 16.9%
COC(=O)c1ccc(OC)c(CSc2nnc(COc3ccccc3)o2)c1 0.55%
CC(C)C(c1nnnn1C1CCCC1)N1c2ccccc2CC1C (configuration not stated) 7%
O=C(COc1cccc(C(F)(F)F)c1)Nc1ccc(S(=O)(=O)N2CCCC2)cc1 9.17%
CCN(CC)S(=O)(=O)c1ccc2[nH]cc(C(=O)NCCC3=CCCCC3)c(=O)c2c1 -6.85%
c1ccc(-c2ccccc2-c2nc(-c3cccnc3)no2)cc1 14.7%
COc1ccc(Cl)cc1N1CCN(CCNC(=O)Nc2ccccc2C)CC1 -2.62%
Clc1ccccc1OCc1nnc(-c2ccccc2Br)o1 0.99%
CCc1cc(/C(Cc2ccc3ccccc3n2)=N\O)c(O)cc1O 17.7% [at 50 µM]
Fc1ccc(-n2c(Cc3ccccc3)nnc2SCc2nc(-c3cccs3)no2)cc1 -13.2%
CCn1cc(C(=O)OC(C)C(=O)Nc2c(C)n(C)n(-c3ccccc3)c2=O)c(=O)c2ccc(C)nc21 (configuration not stated) 13%
N=c1n(Cc2ccccc2)c2ccccc2n1CC(O)COc1ccccc1 (configuration not stated) 12.5%
CCn1c2ccccc2c2cc(NC(=O)c3ccco3)ccc21 -3.49%
CC1CCCc2sc3nc(NCc4ccco4)n4ncnc4c3c21 (configuration not stated) -3.17%
COc1ccc(C)cc1NC(=O)CSc1nnc(COc2ccccc2)n1Cc1ccco1 0.64%
CCOCCn1c(CN(Cc2ccccc2)Cc2ccccc2)nc2c1c(=O)n(C)c(=O)n2C 1.81%
O=C(Nc1ccc(C(F)(F)F)cc1Cl)c1ccc(Cn2cc(Br)cn2)o1 1.95%
CCCOC(=O)c1ccc(Oc2c(-c3ccc(O)cc3O)n[nH]c2C)cc1 14.6%
COc1ccc(Cn2nnnc2C(C(C)C)N2CCc3ccccc32)cc1 (configuration not stated) -16.7%
COc1ccc(-c2noc(CCC(=O)N(C)c3cccc(C)c3)n2)cc1 -3.43%
Clc1ccc(OCCN2CCN(c3ncnc4sccc34)CC2)cc1 9.48%
COc1ccc(-c2n[nH]c(C(F)(F)F)c2-c2cc3ccccc3o2)c(O)c1 15.7%
CCOc1ccc(OCCSc2nnnn2C2CCCCC2)cc1 2.64%
c1ccc(Nc2nc(-c3cccs3)cs2)nc1 15.6%
CCCn1c(SCC(=O)Nc2ccccc2N2CCCCC2)nc2c1c(=O)n(C)c(=O)n2C -7.06%
COc1cc(S(=O)(=O)N2CCC(O)(c3cccc(C(F)(F)F)c3)CC2)ccc1-n1cnnn1 9.3%
CC(C)(C)n1nnnc1C(c1cccs1)N1CCCc2ccccc21 (configuration not stated) 11.6%
Cc1ccccc1OCCCN1C(=O)C(=O)c2cccc(C)c21 -2.25%

4 entries picked at random from the list so far:
Growth inhibition, inactive:
C=CCc1cc(C)ccc1OCC(O)CN1CCN(c2ccccc2)CC1 (configuration not stated) 14%
Cc1ccc(Nc2nc(N)nc(CN3CCN(c4ccccc4)CC3)n2)cc1Cl 2.14%
Clc1ccc(OCCN2CCN(c3ncnc4sccc34)CC2)cc1 9.48%
CCCCCc1cc(O)c2c(C)cc(=O)oc2c1 7.24%
